Source: PMC5031962
These are yes or no findings as the source states them, for the method shown. Binding calls can cover weak binding; strength is not graded here.

Biological target: chemokine domain of CX3CL1 (human)
Assay: fluorescence change of a 5-TAMRA-labelled peptide, single concentration; 500 nM 5-TAMRA peptide with or without 2 μM CCL2 or CX3CL1 in HBSS with 1 mM CaCl2 and 1 mM MgCl2; 20 minutes at RT; excitation 520 nm, emission 580 nm; both purified

Binder	binding
STLNLKNEN (L-5-Carboxytetramethylrhodamine (5-TAMRA) at the C-terminal) [CBP1-EC peptide, 5-TAMRA fluorescent]	binds
SKFTNNMLAIAG (L-5-Carboxytetramethylrhodamine (5-TAMRA) at the C-terminal) [CBP2-EC peptide, 5-TAMRA fluorescent]	binds
